Measured values reported in PMC3079584.
No constants are given. Whether binding was seen depends on the method and setting. For some of these results: Binding calls can cover weak binding; strength is not graded here. Sequences can lack the tags named with a protein.

Protein sequences, listed by entry. Tags and fused reporters are not part of them. Lines headed by an entry give the natural chain unless they say otherwise; changes in a name come on top.
UniProt P32492: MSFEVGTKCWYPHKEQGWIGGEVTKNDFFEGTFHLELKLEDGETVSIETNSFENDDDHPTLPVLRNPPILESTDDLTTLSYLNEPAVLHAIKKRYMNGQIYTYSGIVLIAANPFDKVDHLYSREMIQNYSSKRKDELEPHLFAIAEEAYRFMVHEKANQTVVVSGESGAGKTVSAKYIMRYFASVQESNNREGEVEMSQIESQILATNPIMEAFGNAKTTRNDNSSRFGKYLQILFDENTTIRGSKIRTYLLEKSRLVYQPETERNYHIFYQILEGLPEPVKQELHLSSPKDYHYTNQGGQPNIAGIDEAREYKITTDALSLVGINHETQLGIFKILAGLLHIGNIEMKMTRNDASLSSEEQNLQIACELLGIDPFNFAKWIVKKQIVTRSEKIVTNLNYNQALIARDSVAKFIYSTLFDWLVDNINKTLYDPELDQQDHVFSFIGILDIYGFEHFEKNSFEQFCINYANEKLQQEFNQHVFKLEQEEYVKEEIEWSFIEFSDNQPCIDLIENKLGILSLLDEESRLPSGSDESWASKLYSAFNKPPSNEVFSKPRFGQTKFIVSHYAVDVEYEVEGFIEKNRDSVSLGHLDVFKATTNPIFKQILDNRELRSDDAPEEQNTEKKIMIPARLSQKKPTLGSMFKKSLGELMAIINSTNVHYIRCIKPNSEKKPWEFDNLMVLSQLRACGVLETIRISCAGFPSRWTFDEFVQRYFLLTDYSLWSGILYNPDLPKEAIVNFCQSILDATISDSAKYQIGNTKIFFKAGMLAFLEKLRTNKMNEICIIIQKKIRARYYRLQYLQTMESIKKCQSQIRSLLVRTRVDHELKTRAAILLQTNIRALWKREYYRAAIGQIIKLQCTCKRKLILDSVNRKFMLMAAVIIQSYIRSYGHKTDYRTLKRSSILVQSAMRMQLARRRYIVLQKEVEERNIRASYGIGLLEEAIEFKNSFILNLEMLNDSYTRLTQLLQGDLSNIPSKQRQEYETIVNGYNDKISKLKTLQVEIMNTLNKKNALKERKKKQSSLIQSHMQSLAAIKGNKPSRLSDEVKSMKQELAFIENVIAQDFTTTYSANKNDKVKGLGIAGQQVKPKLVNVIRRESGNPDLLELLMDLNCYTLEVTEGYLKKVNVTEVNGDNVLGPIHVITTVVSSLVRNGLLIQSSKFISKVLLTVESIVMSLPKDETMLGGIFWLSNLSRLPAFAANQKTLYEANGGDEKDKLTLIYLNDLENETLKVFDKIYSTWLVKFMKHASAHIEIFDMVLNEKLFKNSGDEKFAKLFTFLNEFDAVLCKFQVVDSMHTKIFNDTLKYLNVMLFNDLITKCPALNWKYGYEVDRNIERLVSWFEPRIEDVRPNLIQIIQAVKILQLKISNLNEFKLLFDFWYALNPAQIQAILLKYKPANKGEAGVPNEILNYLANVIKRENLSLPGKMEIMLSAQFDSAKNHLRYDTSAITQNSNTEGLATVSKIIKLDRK
UniProt P36068: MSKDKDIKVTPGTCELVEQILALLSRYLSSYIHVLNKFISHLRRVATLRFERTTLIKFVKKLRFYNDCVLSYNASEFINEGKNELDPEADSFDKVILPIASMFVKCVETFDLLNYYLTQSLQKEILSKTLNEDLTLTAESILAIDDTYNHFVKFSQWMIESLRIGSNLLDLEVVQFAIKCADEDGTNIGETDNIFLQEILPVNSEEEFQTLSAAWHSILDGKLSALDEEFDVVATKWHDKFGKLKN

Legend:
[1] = target: T1, Full-length His-She3p (Saccharomyces cerevisiae) (UniProt P38272); test: SEC; analytical, Superose 6 10/300 GL, HNMD-buffer; 20 µM She2p (wild type or mutant), 30 µM She3p and 8.5 µM E3-118-tRNA preincubated 5 min at 20°C; fractions on SDS-PAGE and agarose gel; Myo4p tail added in Figure S3C; both purified
T1 sequence: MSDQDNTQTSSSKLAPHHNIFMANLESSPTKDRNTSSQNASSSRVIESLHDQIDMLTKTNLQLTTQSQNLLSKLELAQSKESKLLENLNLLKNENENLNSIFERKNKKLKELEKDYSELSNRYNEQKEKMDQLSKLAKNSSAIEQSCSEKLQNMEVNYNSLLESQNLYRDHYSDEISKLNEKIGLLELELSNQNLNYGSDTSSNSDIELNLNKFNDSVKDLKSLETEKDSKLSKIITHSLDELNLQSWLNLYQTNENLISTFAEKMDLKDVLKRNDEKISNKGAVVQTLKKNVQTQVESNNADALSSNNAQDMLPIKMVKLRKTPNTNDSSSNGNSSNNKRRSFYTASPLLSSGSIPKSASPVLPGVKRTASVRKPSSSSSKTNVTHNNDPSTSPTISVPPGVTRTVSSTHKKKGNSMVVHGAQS

[2] = target: T1, Full-length His-She3p (Saccharomyces cerevisiae); test: pull-down; His-tagged She3p (full length, point mutants, or MBP-She3p fragment-His) on nickel sepharose, no RNA; 7.5–10 µM of each protein, HNMD-buffer (20 mM HEPES pH 7.8, 200 mM NaCl, 2 mM MgCl2, 2 mM DTT) with 30–50 mM imidazole, 30–60 min at 4°C; SDS-PAGE, Coomassie; both purified
[3] = target: T1, Full-length His-She3p (Saccharomyces cerevisiae); test: condition: 20 µM She2p mutant, 30 µM She3p, 8.5 µM RNA; SEC; analytical, Superose 6 10/300 GL, HNMD-buffer; 20 µM She2p (wild type or mutant), 30 µM She3p and 8.5 µM E3-118-tRNA preincubated 5 min at 20°C; fractions on SDS-PAGE and agarose gel; Myo4p tail added in Figure S3C; both purified
[4] = target: T1, Full-length His-She3p (Saccharomyces cerevisiae); test: SPR; Biacore 3000, CM-5 chip, She3p amine-coupled, She2p flowed over, HNMD-buffer; steady state, Langmuir isotherm; duplicates; both purified

Row | binding [1] | binding [3] | binding [4] | Substance | binding [2]
1 | binds |  |  | Myo4p tail (from UniProt P32492) (domain or fragment) | 
2 |  | no binding | no binding (tested: 150 µM) | She2p (ΔhE) (from UniProt P36068) | no binding (tested: 7.5–10 µM of each protein)
